Laboratory results published in patent US20220409727A1, “Metal Complexes Bearing Bisstyryl-Bipyridine Ligand and Their Use as Photosensitizer Agent in One and Two-Photon Photodynamic Therapy” (Paris Sciences et Lettres, priority 2019, published 2022).
For at least one compound, name, drawing or mass did not settle the structure. Some of these results come from one statement about several compounds together.

Assays:
HeLa MCTS = assay: 3D multicellular tumor spheroids (MCTS) growth inhibition assay; type: cell-based, human; conditions: 20 μM
Protocol: autoclave. The hot emulsion was transferred into wells (50 μL per well) of a 96 cell culture well plate. The plates were exposed for 3 h to UV irradiation to ensure the sterility and allow the agarose solution to cool down. After this time, the agarose was overlayed with a HeLa cell suspension at a density of 3000 cells per well in 150 μL of media. The MCTS were cultivated and maintained at 37° C. in a cell culture incubator at 37° C. with 5% CO2 atmosphere. The culture media was replaced every two days. Within two-three days MCTs were formed from the cell suspension. The formation as well as integrity, diameter and volume of the MCTs was monitored by an Axio Observer Z1 (Carl Zeiss) phase contrast microscope. The volume was calculated using the following formula: V=4/3πr^3. The luminescence images along the z-axis were captured by a one-(λex=458 nm, λem=600-750 nm) or two-photon (λex=800 nm, λem=600-750 nm) excitation in the z-stack mode with a an LSM 880 (Carl Zeiss) laser scanning confocal microscope equipped with Argon and a Coherent Chameleon 2-Photon laser and a GaAsP detector.
MCTS were treated with the corresponding compounds (20 μM 1-7, 20 μM tetraphenylporphyrin H2TPP, 10 μM cisplatin, 30 μM cisplatin, 2% DMSO, v %) by replacing 50% of the media with drug supplemented media in the dark for three days. […]

[1] = Photostability upon irradiation at 450 nm; type: physicochemical; conditions: air saturated CH3CN, 0-10 min

C1=Cc2nc1c(-c1ccccc1)c1ccc([nH]1)c(-c1ccccc1)c1nc(c(-c3ccccc3)c3ccc([nH]3)c2-c2ccccc2)C=C1 [Compound H2TPP, tetraphenylporphyrin, reference compound]
volume of the MCTS, dark (HeLa MCTS; HeLa MCTS about 800 μm, strictly in the dark): do not show any inhibitory effect in the dark | volume of the MCTS after light irradiation (HeLa MCTS; HeLa MCTS, 1P (500 nm, 10 J/cm^2) or 2P (800 nm, 10 J/cm^2) irradiation on day 3): only slight effect

C=CC1=C(C)c2cc3[nH]c(cc4nc(cc5[nH]c(cc1n2)c(C)c5CCC(=O)O)C(CCC(=O)O)=C4C)c(C)c3C=C [PpIX, Protoporphyrin IX, reference compound]
photobleaching (UV/Vis absorption upon irradiation) [1]: completely changed
